PubChem BioAssay AID1259314, Drosophila RNAi Screening Center, 2017

- Screen: 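Genes whose knock-down alters cell survival under toxic manganese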 (primary screen)
- Cells: Drosophila S2R+ cells
- Knock-down reagent: long dsRNA against Drosophila genes
- Timing: 5 days (4 days knock-down, then 1 day metal exposure)
- Treatment: manganese chloride added to 15 mM for 24 hours
- Read-out: 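Luciferase ATP signal used as a proxy for viable cell number, reported as one averaged z-score per dsRNA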
- Reading the numbers: mean ATP z-score: higher = more ATP than the plate average, more viable cells under manganese
- Rule for the call: 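Called active when the mean ATP z-score is above 1.5 or below -1.5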
- Meaning of the calls: active = strong ATP change, up or down; inactive = no strong ATP change
The whole screen tested about 3,100 reagents; below is a random part of them. 289 of them (9.3%) count as active. 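Active includes both higher and lower ATP than plate average; check the z-score sign for direction.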 A plus sign joins genes that one reagent is predicted to hit. The record does not give: the amount of reagent.

target gene,dsRNA,mean ATP z-score,outcome
Ir84a (GeneID 40891),DRSC12510,-0.9,inactive
Ir84a (GeneID 40891),DRSC27487,-0.516,inactive
rtet (GeneID 42500),DRSC14160,-1.31,inactive
rtet (GeneID 42500),DRSC39843,-0.982,inactive
CG1275 (GeneID 38286),DRSC08294,0.84,inactive
Inx2 (GeneID 31646),DRSC18783,0.0743,inactive
Inx2 (GeneID 31646),DRSC24455,0.757,inactive
CG9825 (GeneID 37624),DRSC04569,-0.277,inactive
CG9825 (GeneID 37624),DRSC25634,0.0527,inactive
VhaM9.7-c (GeneID 38503),DRSC08204,-0.329,inactive
VhaM9.7-c (GeneID 38503),DRSC30083,0.233,inactive
Gr59d (GeneID 117343),DRSC22553,-0.137,inactive
Gr59d (GeneID 117343),DRSC39897,0.329,inactive
CG5715 (GeneID 42895),DRSC15860,-0.157,inactive
CG5715 (GeneID 42895),DRSC26011,0.578,inactive
CG32988 (GeneID 318274),DRSC02692,-0.227,inactive
PGAP3 (GeneID 35570),DRSC04989,0.616,inactive
PGAP3 (GeneID 35570),DRSC39550,0.00717,inactive
Gr58b (GeneID 37502),DRSC04140,-0.432,inactive
Gr58b (GeneID 37502),DRSC39737,0.164,inactive
frj (GeneID 33900),DRSC03250,0.276,inactive
frj (GeneID 33900),DRSC39648,-0.349,inactive
Loxl2 (GeneID 37485),DRSC04469,-0.745,inactive
CG14621 (GeneID 33128),DRSC20635,0.395,inactive
CG14621 (GeneID 33128),DRSC27094,0.714,inactive
fbl (GeneID 46234),DRSC11886,-0.475,inactive
fbl (GeneID 46234),DRSC27922,-0.755,inactive
CG33639 (GeneID 32803),DRSC22820,0.074,inactive
CG33639 (GeneID 32803),DRSC23778,2.31,active
CG31523 (GeneID 326148),DRSC12009,0.777,inactive
CG31523 (GeneID 326148),DRSC27253,0.844,inactive
CG31668 (GeneID 33395),DRSC22584,0.212,inactive
CG31668 (GeneID 33395),DRSC39502,-0.359,inactive
mnd (GeneID 39625),DRSC11370,-1.35,inactive
mnd (GeneID 39625),DRSC39608,-1.19,inactive
promL (GeneID 38372),DRSC08733,1.15,inactive
Ac13E (GeneID 32485),DRSC19325,-0.887,inactive
Ac13E (GeneID 32485),DRSC27333,1.23,inactive
Sec61gamma (GeneID 32968),DRSC19570,0.757,inactive
Sec61gamma (GeneID 32968),DRSC25563,0.595,inactive
sut1 (GeneID 35774),DRSC07700,-0.208,inactive
PGRP-LD + Pmi,DRSC10512,1.17,inactive
Zip89B (GeneID 41975),DRSC16128,-0.0554,inactive
Zip89B (GeneID 41975),DRSC29691,-0.623,inactive
acs (GeneID 38264),DRSC08185,1.49,inactive
acs (GeneID 38264),DRSC27629,-0.0105,inactive
MME1 (GeneID 33987),DRSC02714,0.37,inactive
MME1 (GeneID 33987),DRSC39544,-0.288,inactive
ChT (GeneID 42245),DRSC16296,0.72,inactive
Inx5 (GeneID 32901),DRSC20051,-0.12,inactive
CG13409 (GeneID 42592),DRSC14585,-0.0816,inactive
CG13409 (GeneID 42592),DRSC39736,1.2,inactive
CG17660 (GeneID 33347),DRSC00513,-0.56,inactive
CG17660 (GeneID 33347),DRSC39552,-0.202,inactive
NtR (GeneID 43935),DRSC04628,0.334,inactive
NtR (GeneID 43935),DRSC27686,2.37,active
MFS1 (GeneID 246519),DRSC04115,-0.246,inactive
MFS1 (GeneID 246519),DRSC27926,0.147,inactive
Or59b (GeneID 37715),DRSC04632,0.51,inactive
CG8654 (GeneID 37275),DRSC07231,3.56,active
rdo (GeneID 35077),DRSC02452,0.911,inactive
rdo (GeneID 35077),DRSC25572,-0.494,inactive
Gr94a (GeneID 117339),DRSC13597,-0.622,inactive
Gr94a (GeneID 117339),DRSC39563,0.25,inactive
ClC-b (GeneID 36381),DRSC07220,-0.199,inactive
phtf (GeneID 35583),DRSC05023,1.34,inactive
phtf (GeneID 35583),DRSC28441,0.175,inactive
Cad87A (GeneID 41441),DRSC16161,1.13,inactive
Cad87A (GeneID 41441),DRSC29158,0.111,inactive
CG9240 (GeneID 32505),DRSC20177,0.115,inactive
nAChRbeta3 (GeneID 33228),DRSC00325,-0.76,inactive
PIG-U (GeneID 34185),DRSC02193,0.0819,inactive
PIG-U (GeneID 34185),DRSC28900,-0.754,inactive
CG17930 (GeneID 41979),DRSC15292,-1.37,inactive
CG17930 (GeneID 41979),DRSC28230,-0.39,inactive
Glut1 (GeneID 38109),DRSC07927,0.0631,inactive
Glut1 (GeneID 38109),DRSC08662,-0.462,inactive
Tnpo-SR (GeneID 33465),DRSC00546,0.476,inactive
Tnpo-SR (GeneID 33465),DRSC38005,0.789,inactive
msk (GeneID 44747),DRSC11340,-0.657,inactive
msk (GeneID 44747),DRSC23929,7.78,active
SMSr (GeneID 38823),DRSC10999,-0.974,inactive
Tsp5D (GeneID 31540),DRSC18380,0.371,inactive
Tsp5D (GeneID 31540),DRSC39908,2,active
teq (GeneID 39048),DRSC11301,-1.19,inactive
teq (GeneID 39048),DRSC11302,-0.671,inactive
CG4101 (GeneID 39857),DRSC10400,1.15,inactive
CG7149 (GeneID 34063),DRSC03016,-1.16,inactive
CG7149 (GeneID 34063),DRSC39817,-0.934,inactive
robo1 (GeneID 37603),DRSC04712,-1.19,inactive
CG17821 (GeneID 37159),DRSC06696,-0.52,inactive
CG17821 (GeneID 37159),DRSC39871,2.84,active
Ir7d (GeneID 7354416),DRSC18010,0.43,inactive
CG17167 (GeneID 3354991),DRSC20902,0.237,inactive
CG17167 (GeneID 3354991),DRSC20903,-0.639,inactive
Slc45-1 (GeneID 39055),DRSC10427,-0.886,inactive
Or98a (GeneID 43341),DRSC16774,-0.398,inactive
Or98a (GeneID 43341),DRSC26173,-0.97,inactive
Apl (GeneID 59216),DRSC10350,-0.158,inactive
Mdr50 (GeneID 36582),DRSC07467,-0.94,inactive
Mdr50 (GeneID 36582),DRSC23705,-0.781,inactive
CG14778 (GeneID 31100),DRSC17953,0.65,inactive
CG14778 (GeneID 31100),DRSC39900,1.92,active
CG15221 (GeneID 32127),DRSC19659,-0.0573,inactive
Nup153 (GeneID 32630),DRSC19904,-1.99,active
CG18609 (GeneID 37158),DRSC06775,-0.0936,inactive
CG18609 (GeneID 37158),DRSC27601,-0.954,inactive
mtt (GeneID 35832),DRSC05107,-0.364,inactive
mtt (GeneID 35832),DRSC06753,0.102,inactive
mtt (GeneID 35832),DRSC07235,-0.437,inactive

Taken from above:
For “mean ATP z-score”, Ir7d (GeneID 7354416) [DRSC18010] has 0.43
Value for Gr58b (GeneID 37502) [DRSC04140] under “mean ATP z-score”: -0.432
Under “mean ATP z-score”, MME1 (GeneID 33987) [DRSC39544] shows -0.288
Entry for Or59b (GeneID 37715) [DRSC04632] in “outcome”: inactive
Under “outcome”, CG7149 (GeneID 34063) [DRSC03016] shows inactive
For “mean ATP z-score”, Ir84a (GeneID 40891) [DRSC27487] reads -0.516
